Results as given in publication PMC10307831, “GATA zinc finger protein p66β promotes breast cancer cell migration by acting as a co-activator of Snail”.
These are yes or no findings as the source states them, for the method shown. In cells and extracts the contact can be indirect. Here binding means that the protein was enriched with, or labelled near, the bait; the list need not be complete.

Chains of the proteins cited; added tags and fusions are not shown.
UniProt O95863: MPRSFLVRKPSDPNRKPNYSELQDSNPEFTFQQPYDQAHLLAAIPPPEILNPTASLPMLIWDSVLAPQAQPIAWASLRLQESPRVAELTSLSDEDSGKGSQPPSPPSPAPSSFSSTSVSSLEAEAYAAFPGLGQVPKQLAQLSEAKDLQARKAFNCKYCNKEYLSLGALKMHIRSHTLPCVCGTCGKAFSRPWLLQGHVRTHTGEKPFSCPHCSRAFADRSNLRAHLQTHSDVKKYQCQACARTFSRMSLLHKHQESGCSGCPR
UniProt Q8WXI9: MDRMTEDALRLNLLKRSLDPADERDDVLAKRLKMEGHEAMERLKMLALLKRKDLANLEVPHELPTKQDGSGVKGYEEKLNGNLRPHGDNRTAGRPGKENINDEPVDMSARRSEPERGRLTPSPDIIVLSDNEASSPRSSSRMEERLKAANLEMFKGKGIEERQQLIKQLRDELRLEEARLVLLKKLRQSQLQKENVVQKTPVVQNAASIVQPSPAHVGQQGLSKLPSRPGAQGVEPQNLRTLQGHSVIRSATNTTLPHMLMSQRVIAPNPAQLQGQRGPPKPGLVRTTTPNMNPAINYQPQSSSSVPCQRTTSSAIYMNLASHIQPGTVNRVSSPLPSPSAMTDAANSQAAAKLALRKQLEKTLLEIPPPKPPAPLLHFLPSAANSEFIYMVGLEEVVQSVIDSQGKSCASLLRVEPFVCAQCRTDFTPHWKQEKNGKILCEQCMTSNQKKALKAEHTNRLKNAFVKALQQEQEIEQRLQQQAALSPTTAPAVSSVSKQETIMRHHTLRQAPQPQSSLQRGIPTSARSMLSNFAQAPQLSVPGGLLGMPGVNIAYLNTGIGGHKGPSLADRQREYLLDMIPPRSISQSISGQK

Biological target: Flag-Snail (stably expressed in HEK-293T cells) (UniProt O95863)
Assay: affinity purification with mass spectrometry; HEK-293T cells stably expressing Flag-Snail; lysate on anti-Flag M2 affinity gel, washed with BC500 (500 mM KCl), eluted with 3xFlag peptide; SDS-PAGE, bands excised and identified by mass spectrometry

binding: binds
Substance: p66β (endogenous, HEK-293T cells) (from UniProt Q8WXI9 1-593)
